Laboratory results reported in the supplement of paper PMC8728848.
This is one part of the list.

Legend:
[1] = target: Neu5Gc(a2-8)Neu5Gc(a2-6)Gal(b1-4)GlcNAc; assay: glycan array binding signal (z-score within array); higher = stronger binding; conditions: glycan notation: IUPAC condensed, linker removed
Procedure, shortened: (§1)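 The Consortium for Functional Glycomics database supplied 3228 glycan arrays, of which those lacking an available protein sequence were dropped. The binding signal, a within-array Z-score, was averaged across arrays of the same protein sequence and across linkers. Negative scores can be read as non-binding.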

[2] = target: Neu5Gc(b2-6)Gal(b1-4)GlcNAc; assay: as above; conditions: glycan notation: IUPAC condensed, linker removed
Procedure, shortened: as §1

B1: PX14375A-pdi-503-28-503 (Parabacteroides distasonis) (protein)
chain: PLGSPEAGDISEERQAFLRLTAVYSVMKDFRYTWSMQCFGDVLSNDATYSGSSNDAQTFTLLENYQYQADHTEILNKYRYSYQCINKANLFIRDMEMADDALFSKYDKEQMIGEAKFIRAYTYFELVKTFGGVPCYTGVLDLDHERLGRASVEEIYSVIEQDLNDAVSVLPKKSEVANYESSYAGRITKGAAIAMQTRIYLYEKKYDEVKKAFEKFQNECGGEYSLVAPEDYTWQFSLDGEHCSSSILEVNMYNSSTQSSYNVNNGNRHVLMSMPRNMTIGFGCAQPTQALADAYDAEGDVIRKKTTLLSTEEAIEIETAAKGDVAPVTDDRTGWYNRKLYLAPGQREENRGNNQPTNLRLIRLAEVYLNYAEACYFSGDIANAQKYLNEVRSHVNLAPKNHTGSQLFEDIMNERHLEFGMEGFRFFDVVRVGWGEKVFNGTKKAEFGAKTPFSAGAEVLPIPQTEIDISDGLITN
Question: Which “glycan array binding signal (z-score)” value [1] does the source give for B1 here?
Answer: -0.051

Question: And the “glycan array binding signal (z-score)” value [2]?
Answer: -0.19
